Seven molecules from patent US20250283871A1, “COMPOSITIONS AND METHODS FOR MODULATING THE INTERACTION BETWEEN SS18-SSX FUSION ONCOPROTEIN AND NUCLEOSOMES” (Dana-Farber Cancer Institute, Inc., priority 2020, published 2025) can be followed below.

In this data set the test system is BAF complex subunits and histone proteins. Description: Mass spectrometry proteomics of purified HA-SS18 WT and HA-SS18-SSX1 complexes (Tables 5A-5E). To be noted: for Total / Unique: HA-SS18SSX1_CHR_peptides; for Total: total peptides of the identified protein; for Unique: unique peptides of the identified protein; for Total (total peptides) / Unique (unique peptides): HA-SS18SSX1 purification, NE (soluble nuclear extract) fraction, peptides per identified protein; for Total (total peptides) / Unique (unique peptides) / Total (peptides) / Unique (peptides): HEK-293T. Details: species or system human.

Setting [1] is: HA-SS18WT_CHR_peptides: HA-SS18 WT purification from nuclease-treated solubilized chromatin (CHR), label = protein identified.
[2] abbreviates: HA-SS18WT_NE_peptides: HA-SS18 WT complexes purified from nuclear extract (NE), label = protein identified (Gene Symbol).
Setting [3] is: HA-SS18WT_NE_peptides: proteins co-purified with HA-SS18 WT from nuclear extract (NE).

B1: SFXN1 (protein, UniProt Q9H9B4 2-322, looked up)
Sideroflexin-1: SGELPPNINIKEPRWDQSTFIGRANHFFTVTDPRNILLTNEQLESARKIVHDYRQGIVPPGLTENELWRAKYIYDSAFHPDTGEKMILIGRMSAQVPMNMTITGCMMTFYRTTPAVLFWQWINQSFNAVVNYTNRSGDAPLTVNELGTAYVSATTGAVATALGLNALTKHVSPLIGRFVPFAAVAAANCINIPLMRQRELKVGIPVTDENGNRLGESANAAKQAITQVVVSRILMAAPGMAIPPFIMNTLEKKAFLKRFPWMSAPIQVGLVGFCLVFATPLCCALFPQKSSMSVTSLEAELQAKIQESHPELRRVYFNKGL
As to B1, the Total was found to be 4, the Unique is recorded as 4, the “Total (total peptides)” value worked out at 11 and the “Unique (unique peptides)” value amounted to 9. For the same molecule, under setting [1], the “Total (peptides)” value was 7 and the “Unique (peptides)” value is on record as 6. Under setting [2], the “Total (peptides)” value came out at 11 and the “Unique (peptides)” value amounted to 9.

B2: MTA2 (protein, UniProt O94776 1-668, looked up)
Metastasis-associated protein …: MAANMYRVGDYVYFENSSSNPYLVRRIEELNKTANGNVEAKVVCLFRRRDISSSLNSLADSNAREFEEESKQPGVSEQQRHQLKHRELFLSRQFESLPATHIRGKCSVTLLNETDILSQYLEKEDCFFYSLVFDPVQKTLLADQGEIRVGCKYQAEIPDRLVEGESDNRNQQKMEMKVWDPDNPLTDRQIDQFLVVARAVGTFARALDCSSSIRQPSLHMSAAAASRDITLFHAMDTLQRNGYDLAKAMSTLVPQGGPVLCRDEMEEWSASEAMLFEEALEKYGKDFNDIRQDFLPWKSLASIVQFYYMWKTTDRYIQQKRLKAAEADSKLKQVYIPTYTKPNPNQIISVGSKPGMNGAGFQKGLTCESCHTTQSAQWYAWGPPNMQCRLCASCWIYWKKYGGLKTPTQLEGATRGTTEPHSRGHLSRPEAQSLSPYTTSANRAKLLAKNRQTFLLQTTKLTRLARRMCRDLLQPRRAARRPYAPINANAIKAECSIRLPKAAKTPLKIHPLVRLPLATIVKDLVAQAPLKPKTPRGTKTPINRNQLSQNRGLGGIMVKRAYETMAGAGVPFSANGRPLASGIRSSSQPAAKRQKLNPADAPNPVVFVATKDTRALRKALTHLEMRRAARRPNLPLKVKPTLIAVRPPVPLPAPSHPASTNEPIVLED
The molecule B2 gave a Total of 4 and a Unique of 4. Moreover, under setting [1], the “Total (peptides)” value is 4 and the “Unique (peptides)” value was found to be 4.

B3: SRSF4 (protein, UniProt Q08170 1-494, looked up)
Serine/arginine-rich splicing …: MPRVYIGRLSYQARERDVERFFKGYGKILEVDLKNGYGFVEFDDLRDADDAVYELNGKDLCGERVIVEHARGPRRDGSYGSGRSGYGYRRSGRDKYGPPTRTEYRLIVENLSSRCSWQDLKDYMRQAGEVTYADAHKGRKNEGVIEFVSYSDMKRALEKLDGTEVNGRKIRLVEDKPGSRRRRSYSRSRSHSRSRSRSRHSRKSRSRSGSSKSSHSKSRSRSRSGSRSRSKSRSRSQSRSRSKKEKSRSPSKEKSRSRSHSAGKSRSKSKDQAEEKIQNNDNVGKPKSRSPSRHKSKSKSRSRSQERRVEEEKRGSVSRGRSQEKSLRQSRSRSRSKGGSRSRSRSRSKSKDKRKGRKRSREESRSRSRSRSKSERSRKRGSKRDSKAGSSKKKKKEDTDRSQSRSPSRSVSKEREHAKSESSQREGRGESENAGTNQETRSRSRSNSKSKPNLPSESRSRSKSASKTRSRSKSRSRSASRSPSRSRSRSHSRS
B3 returned a Total of 4 and a Unique of 4.

B4: MAU2 (protein, UniProt Q9Y6X3 1-613, looked up)
MAU2 chromatid cohesion …: MAAQAAAAAQAAAAQAAQAEAADSWYLALLGFAEHFRTSSPPKIRLCVHCLQAVFPFKPPQRIEARTHLQLGSVLYHHTKNSEQARSHLEKAWLISQQIPQFEDVKFEAASLLSELYCQENSVDAAKPLLRKAIQISQQTPYWHCRLLFQLAQLHTLEKDLVSACDLLGVGAEYARVVGSEYTRALFLLSKGMLLLMERKLQEVHPLLTLCGQIVENWQGNPIQKESLRVFFLVLQVTHYLDAGQVKSVKPCLKQLQQCIQTISTLHDDEILPSNPADLFHWLPKEHMCVLVYLVTVMHSMQAGYLEKAQKYTDKALMQLEKLKMLDCSPILSSFQVILLEHIIMCRLVTGHKATALQEISQVCQLCQQSPRLFSNHAAQLHTLLGLYCVSVNCMDNAEAQFTTALRLTNHQELWAFIVTNLASVYIREGNRHQEVLYSLLERINPDHSFPVSSHCLRAAAFYVRGLFSFFQGRYNEAKRFLRETLKMSNAEDLNRLTACSLVLLGHIFYVLGNHRESNNMVVPAMQLASKIPDMSVQLWSSALLRDLNKACGNAMDAHEAAQMHQNFSQQLLQDHIEACSLPEHNLITWTDGPPPVQFQAQNGPNTSLASLL
On to B4, for which the Total turned out to be 4 and the Unique was 4.

B5: SUGP2 (protein, UniProt Q8IX01 1-1082, looked up)
SURP and G-patch …: MAARRITQETFDAVLQEKAKRYHMDASGEAVSETLQFKAQDLLRAVPRSRAEMYDDVHSDGRYSLSGSVAHSRDAGREGLRSDVFPGPSFRSSNPSISDDSYFRKECGRDLEFSHSDSRDQVIGHRKLGHFRSQDWKFALRGSWEQDFGHPVSQESSWSQEYSFGPSAVLGDFGSSRLIEKECLEKESRDYDVDHPGEADSVLRGGSQVQARGRALNIVDQEGSLLGKGETQGLLTAKGGVGKLVTLRNVSTKKIPTVNRITPKTQGTNQIQKNTPSPDVTLGTNPGTEDIQFPIQKIPLGLDLKNLRLPRRKMSFDIIDKSDVFSRFGIEIIKWAGFHTIKDDIKFSQLFQTLFELETETCAKMLASFKCSLKPEHRDFCFFTIKFLKHSALKTPRVDNEFLNMLLDKGAVKTKNCFFEIIKPFDKYIMRLQDRLLKSVTPLLMACNAYELSVKMKTLSNPLDLALALETTNSLCRKSLALLGQTFSLASSFRQEKILEAVGLQDIAPSPAAFPNFEDSTLFGREYIDHLKAWLVSSGCPLQVKKAEPEPMREEEKMIPPTKPEIQAKAPSSLSDAVPQRADHRVVGTIDQLVKRVIEGSLSPKERTLLKEDPAYWFLSDENSLEYKYYKLKLAEMQRMSENLRGADQKPTSADCAVRAMLYSRAVRNLKKKLLPWQRRGLLRAQGLRGWKARRATTGTQTLLSSGTRLKHHGRQAPGLSQAKPSLPDRNDAAKDCPPDPVGPSPQDPSLEASGPSPKPAGVDISEAPQTSSPCPSADIDMKTMETAEKLARFVAQVGPEIEQFSIENSTDNPDLWFLHDQNSSAFKFYRKKVFELCPSICFTSSPHNLHTGGGDTTGSQESPVDLMEGEAEFEDEPPPREAELESPEVMPEEEDEDDEDGGEEAPAPGGAGKSEGSTPADGLPGEAAEDDLAGAPALSQASSGTCFPRKRISSKSLKVGMIPAPKRVCLIQEPKVHEPVRIAYDRPRGRPMSKKKKPKDLDFAQQKLTDKNLGFQMLQKMGWKEGHGLGSLGKGIREPVSVGTPSEGEGLGADGQEHKEDTFDVFRQRMMQMYRHKRANK
For the molecule B5, the Total came out at 4 and the Unique came to 4.

B6: ATAD3A (protein, UniProt Q9NVI7 2-586, looked up)
ATPase family AAA …: SWLFGINKGPKGEGAGPPPPLPPAQPGAEGGGDRGLGDRPAPKDKWSNFDPTGLERAAKAARELEHSRYAKDALNLAQMQEQTLQLEQQSKLKEYEAAVEQLKSEQIRAQAEERRKTLSEETRQHQARAQYQDKLARQRYEDQLKQQQLLNEENLRKQEESVQKQEAMRRATVEREMELRHKNEMLRVEAEARARAKAERENADIIREQIRLKAAEHRQTVLESIRTAGTLFGEGFRAFVTDWDKVTATVAGLTLLAVGVYSAKNATLVAGRFIEARLGKPSLVRETSRITVLEALRHPIQVSRRLLSRPQDALEGVVLSPSLEARVRDIAIATRNTKKNRSLYRNILMYGPPGTGKTLFAKKLALHSGMDYAIMTGGDVAPMGREGVTAMHKLFDWANTSRRGLLLFVDEADAFLRKRATEKISEDLRATLNAFLYRTGQHSNKFMLVLASNQPEQFDWAINDRINEMVHFDLPGQEERERLVRMYFDKYVLKPATEGKQRLKLAQFDYGRKCSEVARLTEGMSGREIAQLAVSWQATAYASEDGVLTEAMMDTRVQDAVQQHQQKMCWLKAEGPGRGDEPSPS
As for B6, the Total is 4, the Unique was 4, the “Total (total peptides)” value amounted to 14 and the “Unique (unique peptides)” value was 13. Also, under setting [1], the “Total (peptides)” value is given as 3 and the “Unique (peptides)” value came out at 3. Besides, under setting [2], the “Total (peptides)” value is 20 and the “Unique (peptides)” value is 15.

B7: TMEM43 (protein, UniProt Q9BTV4 2-400, looked up)
Transmembrane protein 43: AANYSSTSTRREHVKVKTSSQPGFLERLSETSGGMFVGLMAFLLSFYLIFTNEGRALKTATSLAEGLSLVVSPDSIHSVAPENEGRLVHIIGALRTSKLLSDPNYGVHLPAVKLRRHVEMYQWVETEESREYTEDGQVKKETRYSYNTEWRSEIINSKNFDREIGHKNPSAMAVESFMATAPFVQIGRFFLSSGLIDKVDNFKSLSLSKLEDPHVDIIRRGDFFYHSENPKYPEVGDLRVSFSYAGLSGDDPDLGPAHVVTVIARQRGDQLVPFSTKSGDTLLLLHHGDFSAEEVFHRELRSNSMKTWGLRAAGWMAMFMGLNLMTRILYTLVDWFPVFRDLVNIGLKAFAFCVATSLTLLTVAAGWLFYRPLWALLIAGLALVPILVARTRVPAKKLE
The molecule B7 showed a Total of 4 and a Unique of 4. Also, under setting [3], the “Total (peptides)” value is 2 and the “Unique (peptides)” value is listed as 2.
